The experiment concerns the target T1, BIK1-YFP^N (N. benthamiana) (Arabidopsis thaliana) (UniProt O48814).
T1 sequence: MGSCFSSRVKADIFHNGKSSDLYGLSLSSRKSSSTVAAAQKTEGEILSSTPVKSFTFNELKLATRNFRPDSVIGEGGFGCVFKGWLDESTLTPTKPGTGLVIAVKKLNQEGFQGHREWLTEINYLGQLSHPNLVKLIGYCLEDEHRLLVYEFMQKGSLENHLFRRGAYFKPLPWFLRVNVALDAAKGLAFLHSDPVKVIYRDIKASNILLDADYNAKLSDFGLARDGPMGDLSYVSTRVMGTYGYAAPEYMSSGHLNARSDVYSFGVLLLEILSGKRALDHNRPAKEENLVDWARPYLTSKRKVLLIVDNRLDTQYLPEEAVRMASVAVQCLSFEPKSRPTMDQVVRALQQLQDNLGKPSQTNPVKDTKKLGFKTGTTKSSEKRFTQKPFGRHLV
The experiment can be described thus: split reporter; BiFC (split YFP) in N. benthamiana leaves co-infiltrated with Agrobacterium C58C1; confocal microscopy.

By UniProt entry, the sequences of proteins in these tests, tags left out. Where a name states a change or a piece, a line headed by the entry shows the natural chain unless it says otherwise.
UniProt Q9XEC6: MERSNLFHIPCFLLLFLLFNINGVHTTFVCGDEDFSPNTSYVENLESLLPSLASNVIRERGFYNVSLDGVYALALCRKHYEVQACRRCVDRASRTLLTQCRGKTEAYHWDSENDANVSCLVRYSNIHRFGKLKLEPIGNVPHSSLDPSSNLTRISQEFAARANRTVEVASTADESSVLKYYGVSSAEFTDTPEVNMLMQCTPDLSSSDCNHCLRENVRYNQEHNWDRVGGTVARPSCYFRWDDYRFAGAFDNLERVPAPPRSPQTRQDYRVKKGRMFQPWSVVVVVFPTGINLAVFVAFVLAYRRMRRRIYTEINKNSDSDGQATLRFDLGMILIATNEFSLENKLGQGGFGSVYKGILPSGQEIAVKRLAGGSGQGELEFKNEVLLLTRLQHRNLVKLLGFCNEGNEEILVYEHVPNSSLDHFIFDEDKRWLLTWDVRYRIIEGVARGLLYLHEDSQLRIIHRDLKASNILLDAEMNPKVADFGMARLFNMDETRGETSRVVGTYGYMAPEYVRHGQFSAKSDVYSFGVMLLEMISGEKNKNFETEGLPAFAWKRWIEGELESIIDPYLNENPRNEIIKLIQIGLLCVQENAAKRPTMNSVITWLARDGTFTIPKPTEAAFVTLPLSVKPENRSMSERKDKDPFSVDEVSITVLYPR

Drawing on article PMC5663720, this text covers binding for one substance.

Results are given in words; binding and its absence hold for the method and conditions named. Binding seen in cells or lysates may run through a third protein. Binding calls can cover weak binding; strength is not graded here. Tags and fused reporters may be left off the sequences shown.

In the case of “CRK36^C6789A-YFP^C (from UniProt Q9XEC6) (receptor)”, the binding result is given as “binds”.
